Consider 17 compounds from the supplement of paper PMC4604168 (melanoma cell lines).

This is one part of the list. Repeats are few or missing, and single values can be far off.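 Cells were imaged in 1,536-well plates, and nuclei stained with an antibody against cleaved PARP were counted against all DNA-stained nuclei to give the apoptosis fraction. Screening doses were chosen to leave most cells alive, and resting and induced cleaved-PARP levels differ strongly between cell lines.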

Some test systems named below: WM115; WM1716; WM1745; WM3526; WM3619; WM451Lu.
What all share (assay): cleaved PARP positive nuclei fraction relative to DMSO control; melanoma cells; higher = more apoptosis
What all share (conditions): library dose: low library concentration; 72 h

As for `C#Cc1cccc(Nc2ncnc3cc(OCCOC)c(OCCOC)cc23)c1` [erlotinib] + COc1ccc(COc2ccc(Cc3cnc(N)nc3N)cc2OC)cc1 [GW2580] (first compound 0.8 µM, partner dose 1 µM), the “cleaved PARP positive nuclei fraction” value was determined as 221% in the assay with WM115; 27.6% in the assay on WM1716; 127% with WM1745; 67% with WM3526; 88.3% with WM3619; 51.2% in the assay with WM451Lu.
On to `C=CCNC1=C2C[C@@H](C)C[C@H](OC)[C@H](O)[C@@H](C)/C=C(\C)[C@H](OC(N)=O)[C@@H](OC)/C=C\C=C(/C)C(=O)NC(=CC1=O)C2=O` [Tanespimycin] + O=c1cc(-c2cccc3c2Sc2ccccc2S3)oc(N2CCOCC2)c1 [KU55933] (first compound 0.002 µM, partner dose 1 µM), for which the “cleaved PARP positive nuclei fraction” value was determined as 202% in the assay on WM115; 221% with WM1716; 124% in the assay on WM1745; 96.2% in the assay with WM3526; 164% in the assay with WM3619; 115% in the assay on WM451Lu.
Consider `O=C(CCCCCCC(=O)Nc1ccccc1)NO` [vorinostat] + C[C@@H]1CCN(C(=O)CC#N)C[C@@H]1N(C)c1ncnc2[nH]ccc12 [CP690550] (first compound 0.08 µM, partner dose 1 µM), for which the “cleaved PARP positive nuclei fraction” value in the assay with WM115 is 35.9%; in the assay with WM1716 it was 92.1%; in the assay on WM1745 it was 86.5%; in the assay with WM3526, 327%; with WM3619 it was 102%; in the assay with WM451Lu, 195%.
For `NC(=O)Nc1cc(-c2cccc(F)c2)sc1C(=O)N[C@H]1CCCNC1` + O=C1NC(=O)/C(=C/c2ccc(-c3ccc(F)cc3O)o2)S1 [AS252424] (first compound 0.02 µM, partner dose 1 µM), the “cleaved PARP positive nuclei fraction” value in the assay with WM115 was determined as 160%; with WM1716, 154%; in the assay with WM1745, 114%; with WM3526, 91.2%; in the assay on WM3619, 123%; in the assay with WM451Lu, 263%.
As for `O=C(Nc1cccc(Cl)c1)Nc1ncc(CCNc2ncnc3ccsc23)s1` + CCc1ccc(CCOc2ccc(CC3SC(=O)NC3=O)cc2)nc1 [pioglitazone] (first compound 0.0008 µM, partner dose 2 µM), the “cleaved PARP positive nuclei fraction” value with WM115 stood at 220%; in the assay on WM1716 it was 67.6%; in the assay on WM1745, 108%; with WM3526 it was 267%; in the assay with WM3619 it was 75.6%; in the assay with WM451Lu, 361%.
In the case of `Cn1cncc1[C@@](N)(c1ccc(Cl)cc1)c1ccc2c(c1)c(-c1cccc(Cl)c1)cc(=O)n2C` [tipifarnib] + CCc1ccc(CCOc2ccc(CC3SC(=O)NC3=O)cc2)nc1 [pioglitazone] (first compound 0.01 µM, partner dose 2 µM), the “cleaved PARP positive nuclei fraction” value in the assay on WM115 was determined as 85.4%; with WM1716 it was 91.6%; in the assay with WM1745, 111%; in the assay on WM3526, 65.2%; with WM3619 it was 91.8%; with WM451Lu, 143%.
Consider `Nc1cccc2c1CN(C1CCC(=O)NC1=O)C2=O` (configuration not stated) [lenalidomide] + CCN(CC)CCCCNc1ncc2cc(-c3cc(OC)cc(OC)c3)c(NC(=O)NC(C)(C)C)nc2n1 [PD173074] (first compound 1 µM, partner dose 0.1 µM), for which the “cleaved PARP positive nuclei fraction” value with WM115 stood at 95.5%; in the assay on WM1716, 70.7%; with WM1745 it was 107%; in the assay with WM3526, 72%; in the assay with WM3619, 74%; in the assay on WM451Lu it was 570%.
As for `C[C@]1(c2nc3c(C(N)=O)cccc3[nH]2)CCCN1` [Veliparib] + c1cc(-c2cnn3cc(-c4ccc(OCCN5CCCCC5)cc4)cnc23)ccn1 [Dorsomorphin] (first compound 1.4 µM, partner dose 0.4 µM), the “cleaved PARP positive nuclei fraction” value in the assay on WM115 amounted to 207%; with WM1716, 112%; in the assay with WM1745, 120%; with WM3526 it was 144%; with WM3619, 80.9%; in the assay on WM451Lu it was 32.1%.
In the case of `CC(=O)c1c(C)c2cnc(Nc3ccc(N4CCNCC4)cn3)nc2n(C2CCCC2)c1=O` [palbociclib] + COc1cc2ncnc(Nc3ccc(Oc4ccccc4)cc3)c2cc1OC [SrcI1] (first compound 0.04 µM, partner dose 2 µM), the “cleaved PARP positive nuclei fraction” value is 152% with WM115; 181% in the assay on WM1716; 134% in the assay on WM1745; 114% in the assay on WM3526; 133% in the assay on WM3619; 222% with WM451Lu.
Consider `Clc1ccc(Nc2nnc(Cc3ccncc3)c3ccccc23)cc1` [vatalanib] + C=CCn1c(=O)c2cnc(Nc3ccc(N4CCN(C)CC4)cc3)nc2n1-c1cccc(C(C)(C)O)n1 [MK1775] (first compound 2 µM, partner dose 0.02 µM), for which the “cleaved PARP positive nuclei fraction” value worked out at 153% in the assay with WM115; 138% with WM1716; 117% with WM1745; 54.2% in the assay on WM3526; 124% in the assay on WM3619; 23.9% in the assay on WM451Lu.
In the case of `NC(=O)Nc1cc(-c2cccc(F)c2)sc1C(=O)N[C@H]1CCCNC1` + Cc1cc(N2CCOCC2)cc2[nH]c(-c3c(NC[C@@H](O)c4cccc(Cl)c4)cc[nH]c3=O)nc12 [BMS536924] (first compound 0.02 µM, partner dose 0.2 µM), the “cleaved PARP positive nuclei fraction” value was found to be 161% in the assay on WM115; 240% in the assay with WM1716; 127% in the assay with WM1745; 285% in the assay on WM3526; 135% with WM3619; 68.4% in the assay with WM451Lu.
For `CC(C)(C)c1cnc(CSc2cnc(NC(=O)C3CCNCC3)s2)o1` + Oc1nc(-c2ccc(C(F)(F)F)cc2)nc2c1CSCC2 [XAV939] (first compound 0.01 µM, partner dose 2 µM), the “cleaved PARP positive nuclei fraction” value in the assay with WM115 is 37.3%; with WM1716, 82%; in the assay on WM1745 it was 134%; with WM3526, 129%; in the assay on WM3619 it was 115%; in the assay with WM451Lu it was 58.7%.
For the compound `COCC[n+]1c2c(n(Cc3cnccn3)c1C)C(=O)c1ccccc1C2=O` + COc1cc(Nc2ncc(F)c(Nc3ccc4c(n3)NC(=O)C(C)(C)O4)n2)cc(OC)c1OC [Tamatinib] (first compound 0.0004 µM, partner dose 0.4 µM), the “cleaved PARP positive nuclei fraction” value with WM115 came to 69.3%; in the assay on WM1716, 69.9%; in the assay on WM1745, 131%; in the assay with WM3526 it was 133%; with WM3619 it was 96.5%; in the assay with WM451Lu it was 140%.
As for `Clc1ccc(Nc2nnc(Cc3ccncc3)c3ccccc23)cc1` [vatalanib] + CC(C)CCN1c2nc(Nc3cc(F)c(O)c(F)c3)ncc2N(C)C(=O)C1C [BID1870] (first compound 2 µM, partner dose 0.2 µM), the “cleaved PARP positive nuclei fraction” value was 109% with WM115; 69.2% in the assay with WM1716; 107% with WM1745; 134% in the assay on WM3526; 72.1% in the assay with WM3619; 92% in the assay on WM451Lu.
For `OCCn1cc(-c2cnc3nnn(Cc4ccc5ncccc5c4)c3n2)cn1` + CN(C)S(=O)(=O)c1ccc2c(c1)/C(=C/c1cc3c([nH]1)CCCC3)C(=O)N2 [SU6656] (first compound 1 µM, partner dose 0.4 µM), the “cleaved PARP positive nuclei fraction” value came to 129% in the assay with WM115; 85.8% in the assay on WM1716; 80.8% in the assay with WM1745; 98% in the assay on WM3526; 85.8% in the assay with WM3619; 133% with WM451Lu.
For the compound `Cn1c(Nc2ccc(C(F)(F)F)cc2)nc2cc(Oc3ccnc(-c4ncc(C(F)(F)F)[nH]4)c3)ccc21` + COc1ccc2c(c1)CCC1C2CCC2(C)C(NCCCCCCN3C(=O)C=CC3=O)CCC12 [U73122] (first compound 0.08 µM, partner dose 0.4 µM), the “cleaved PARP positive nuclei fraction” value with WM115 came to 597%; with WM1716 it was 190%; in the assay on WM1745, 168%; in the assay with WM3526, 152%; in the assay on WM3619, 114%; with WM451Lu it was 56.3%.
`OCc1c[nH]c2ccccc12` [Indole-3-carbinol] + CC(C)(C)c1cnc(CSc2cnc(NC(=O)C3CCNCC3)s2)o1 [SNS-032] (first compound 0.8 µM, partner dose 0.01 µM): the “cleaved PARP positive nuclei fraction” value with WM115 worked out at 45.2%; in the assay on WM1716, 42.2%; in the assay on WM1745, 85.3%; with WM3526, 51.6%; in the assay with WM3619, 82.4%; with WM451Lu, 199%.
